Read-outs that look alike come from different tables or passages of the source. No constants are given. Whether binding was seen depends on the method and setting. For some of these results: In cells and extracts the contact can be indirect. Some entries that bind do so weakly or less than the wild type. For some of these results: Sequences can lack the tags named with a protein. Values belong to the molecule of their own block, whether it stands above or below them.
Legend:
[1] = molecular target: T1, Apolipoprotein A-I (apoA-I), endogenous (mouse (endogenous in primary murine hepatocytes)) (UniProt Q00623); experiment: co-IP; endogenous proteins in primary murine hepatocytes (for ABCA1: WT and IP6K1 KO hepatocytes); lysis buffer 50 mM Tris-HCl pH 7.4, 100 mM NaCl, 0.5% Igepal CA630, 5 mM MgCl2; primary antibody overnight at 4°C, protein A/G beads
T1 sequence: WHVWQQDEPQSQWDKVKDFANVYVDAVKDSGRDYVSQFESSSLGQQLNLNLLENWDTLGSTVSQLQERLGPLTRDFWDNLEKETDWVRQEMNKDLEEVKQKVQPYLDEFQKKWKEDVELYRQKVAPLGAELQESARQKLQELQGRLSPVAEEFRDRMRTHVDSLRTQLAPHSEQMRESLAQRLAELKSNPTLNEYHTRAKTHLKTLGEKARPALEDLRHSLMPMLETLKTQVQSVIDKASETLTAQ

Protein sequences, listed by entry. Tags and fused reporters are not part of them.
UniProt Q6PD10: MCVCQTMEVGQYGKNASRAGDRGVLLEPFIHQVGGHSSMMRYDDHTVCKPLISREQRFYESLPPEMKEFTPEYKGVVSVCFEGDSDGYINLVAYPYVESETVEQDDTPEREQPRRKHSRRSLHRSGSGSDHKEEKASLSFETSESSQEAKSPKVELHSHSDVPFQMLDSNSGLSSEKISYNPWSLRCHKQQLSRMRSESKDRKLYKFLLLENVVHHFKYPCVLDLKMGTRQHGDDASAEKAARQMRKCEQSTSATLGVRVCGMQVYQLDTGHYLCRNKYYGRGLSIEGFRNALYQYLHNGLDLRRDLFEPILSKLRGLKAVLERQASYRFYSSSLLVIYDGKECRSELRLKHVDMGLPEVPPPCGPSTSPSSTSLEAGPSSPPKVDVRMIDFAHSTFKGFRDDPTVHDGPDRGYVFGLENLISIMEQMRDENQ
UniProt P41233: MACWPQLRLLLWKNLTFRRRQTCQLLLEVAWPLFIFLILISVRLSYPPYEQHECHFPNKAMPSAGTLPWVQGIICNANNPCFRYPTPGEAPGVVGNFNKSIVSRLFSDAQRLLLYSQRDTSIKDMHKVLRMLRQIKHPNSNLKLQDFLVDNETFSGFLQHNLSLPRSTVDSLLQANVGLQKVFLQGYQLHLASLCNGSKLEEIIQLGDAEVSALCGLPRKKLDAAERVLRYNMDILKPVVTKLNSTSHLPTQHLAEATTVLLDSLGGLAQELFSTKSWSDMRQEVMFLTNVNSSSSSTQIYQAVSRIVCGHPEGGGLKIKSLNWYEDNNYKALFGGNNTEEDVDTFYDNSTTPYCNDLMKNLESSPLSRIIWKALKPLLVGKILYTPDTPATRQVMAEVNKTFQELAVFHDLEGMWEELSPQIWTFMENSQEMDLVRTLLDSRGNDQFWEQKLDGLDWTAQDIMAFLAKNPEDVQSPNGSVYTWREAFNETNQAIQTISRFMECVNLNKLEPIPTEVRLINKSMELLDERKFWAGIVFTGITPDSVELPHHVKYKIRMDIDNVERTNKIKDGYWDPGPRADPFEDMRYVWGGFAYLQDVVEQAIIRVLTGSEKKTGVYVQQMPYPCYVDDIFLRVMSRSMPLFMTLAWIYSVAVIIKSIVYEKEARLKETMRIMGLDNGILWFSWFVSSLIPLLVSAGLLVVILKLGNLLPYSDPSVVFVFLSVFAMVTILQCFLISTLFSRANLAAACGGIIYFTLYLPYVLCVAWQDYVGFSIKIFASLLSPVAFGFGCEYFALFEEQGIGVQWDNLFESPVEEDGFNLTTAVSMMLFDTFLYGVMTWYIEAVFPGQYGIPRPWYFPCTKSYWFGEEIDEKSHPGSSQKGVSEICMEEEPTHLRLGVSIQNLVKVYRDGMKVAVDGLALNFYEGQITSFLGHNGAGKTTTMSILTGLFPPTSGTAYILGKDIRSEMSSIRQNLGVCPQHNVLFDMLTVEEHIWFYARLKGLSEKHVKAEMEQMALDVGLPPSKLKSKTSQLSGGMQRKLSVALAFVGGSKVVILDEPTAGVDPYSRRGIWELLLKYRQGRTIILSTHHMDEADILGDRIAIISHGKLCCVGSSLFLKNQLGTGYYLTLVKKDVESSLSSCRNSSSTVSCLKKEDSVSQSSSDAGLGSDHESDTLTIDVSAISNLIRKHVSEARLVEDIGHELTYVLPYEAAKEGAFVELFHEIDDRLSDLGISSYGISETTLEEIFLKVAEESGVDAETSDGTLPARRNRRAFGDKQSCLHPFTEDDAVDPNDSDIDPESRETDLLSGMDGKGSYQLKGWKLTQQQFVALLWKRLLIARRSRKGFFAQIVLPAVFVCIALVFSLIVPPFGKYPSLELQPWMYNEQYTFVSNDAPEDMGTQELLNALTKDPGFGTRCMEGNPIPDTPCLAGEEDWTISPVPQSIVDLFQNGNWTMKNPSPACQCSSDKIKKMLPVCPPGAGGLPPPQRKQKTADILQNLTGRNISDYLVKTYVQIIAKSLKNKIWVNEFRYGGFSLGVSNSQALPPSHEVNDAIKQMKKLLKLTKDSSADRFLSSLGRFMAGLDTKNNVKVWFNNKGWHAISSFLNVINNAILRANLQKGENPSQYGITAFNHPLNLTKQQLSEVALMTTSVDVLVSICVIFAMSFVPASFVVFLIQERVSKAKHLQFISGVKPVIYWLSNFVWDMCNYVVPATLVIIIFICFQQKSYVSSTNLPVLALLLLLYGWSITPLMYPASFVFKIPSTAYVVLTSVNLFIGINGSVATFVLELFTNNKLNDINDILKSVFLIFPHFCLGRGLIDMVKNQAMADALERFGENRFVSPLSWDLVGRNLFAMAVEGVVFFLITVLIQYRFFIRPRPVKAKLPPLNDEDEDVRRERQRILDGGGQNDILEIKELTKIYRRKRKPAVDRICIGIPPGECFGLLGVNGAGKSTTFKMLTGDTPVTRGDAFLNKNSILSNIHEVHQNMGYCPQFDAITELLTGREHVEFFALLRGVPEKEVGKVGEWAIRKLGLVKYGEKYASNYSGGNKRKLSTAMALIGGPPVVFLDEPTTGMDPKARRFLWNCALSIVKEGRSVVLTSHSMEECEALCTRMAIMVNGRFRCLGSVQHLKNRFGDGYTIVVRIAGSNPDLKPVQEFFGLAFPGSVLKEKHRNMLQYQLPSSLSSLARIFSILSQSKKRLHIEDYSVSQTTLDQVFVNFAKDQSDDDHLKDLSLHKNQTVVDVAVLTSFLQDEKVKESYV

[2] = molecular target: T2, Ubiquitination factor E4A (UBE4A), endogenous (mouse (endogenous in primary murine hepatocytes)) (UniProt E9Q735); experiment: as above
T2 sequence: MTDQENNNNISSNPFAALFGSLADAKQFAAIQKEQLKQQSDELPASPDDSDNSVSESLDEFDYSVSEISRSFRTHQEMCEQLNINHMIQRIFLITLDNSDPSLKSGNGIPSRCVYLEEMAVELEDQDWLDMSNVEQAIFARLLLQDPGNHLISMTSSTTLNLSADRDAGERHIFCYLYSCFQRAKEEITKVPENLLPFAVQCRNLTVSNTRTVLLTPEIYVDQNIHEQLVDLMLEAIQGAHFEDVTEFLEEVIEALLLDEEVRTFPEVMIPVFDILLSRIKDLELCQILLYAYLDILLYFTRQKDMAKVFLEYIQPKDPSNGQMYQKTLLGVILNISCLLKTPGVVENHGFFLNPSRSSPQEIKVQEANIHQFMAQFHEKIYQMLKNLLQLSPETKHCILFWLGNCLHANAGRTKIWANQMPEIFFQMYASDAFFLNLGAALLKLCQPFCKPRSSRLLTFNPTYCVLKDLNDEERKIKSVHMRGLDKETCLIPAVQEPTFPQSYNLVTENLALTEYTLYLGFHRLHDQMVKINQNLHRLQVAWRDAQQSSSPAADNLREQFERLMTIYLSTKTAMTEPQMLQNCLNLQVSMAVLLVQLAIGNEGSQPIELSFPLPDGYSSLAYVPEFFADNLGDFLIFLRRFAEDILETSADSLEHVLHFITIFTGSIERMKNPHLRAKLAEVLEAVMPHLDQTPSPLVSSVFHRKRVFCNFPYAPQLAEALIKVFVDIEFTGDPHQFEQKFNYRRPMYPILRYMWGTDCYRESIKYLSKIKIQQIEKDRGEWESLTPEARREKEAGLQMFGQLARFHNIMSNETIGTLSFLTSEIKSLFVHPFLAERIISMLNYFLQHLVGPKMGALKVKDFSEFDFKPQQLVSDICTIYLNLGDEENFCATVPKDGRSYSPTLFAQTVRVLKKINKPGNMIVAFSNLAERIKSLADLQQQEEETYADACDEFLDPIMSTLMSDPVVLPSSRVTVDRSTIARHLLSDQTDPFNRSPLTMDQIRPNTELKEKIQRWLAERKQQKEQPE

[3] = molecular target: T2, Ubiquitination factor E4A (UBE4A), endogenous (mouse (endogenous in primary murine hepatocytes)); experiment: co-IP; flag-apoA-I overexpressed in primary murine hepatocytes, endogenous UBE4A; WT against IP6K1 KO cells, and cells treated with SC-919 (1 μM, 24 hours) against untreated; less complex in IP6K1 KO and in SC-919-treated cells
[4] = molecular target: T1, Apolipoprotein A-I (apoA-I), endogenous (mouse (endogenous in primary murine hepatocytes)); experiment: co-IP; endogenous proteins in primary murine hepatocytes (for ABCA1: WT and IP6K1 KO hepatocytes); lysis buffer 50 mM Tris-HCl pH 7.4, 100 mM NaCl, 0.5% Igepal CA630, 5 mM MgCl2; primary antibody overnight at 4°C, protein A/G beads; remark: listed apart in the source
[5] = molecular target: Inositol hexakisphosphate kinase 1 (IP6K1), endogenous (mouse (endogenous in primary murine hepatocytes)) (UniProt Q6PD10); experiment: as above
[6] = molecular target: T3, Flag-tagged apoA-I (overexpressed in primary murine hepatocytes) (UniProt Q00623); experiment: co-IP; flag-apoA-I overexpressed in primary murine hepatocytes, endogenous UBE4A; WT against IP6K1 KO cells, and cells treated with SC-919 (1 μM, 24 hours) against untreated; less complex in IP6K1 KO and in SC-919-treated cells
T3 sequence: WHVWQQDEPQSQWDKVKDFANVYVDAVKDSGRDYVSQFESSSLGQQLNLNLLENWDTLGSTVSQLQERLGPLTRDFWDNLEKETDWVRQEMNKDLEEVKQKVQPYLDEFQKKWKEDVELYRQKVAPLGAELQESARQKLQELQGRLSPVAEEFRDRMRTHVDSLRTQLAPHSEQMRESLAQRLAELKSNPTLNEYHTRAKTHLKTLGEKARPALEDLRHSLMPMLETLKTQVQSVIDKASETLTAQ

Myc-tagged WT IP6K1 = Myc-tagged WT IP6K1 (UniProt Q6PD10); experiment: co-IP; tagged proteins overexpressed together (HEK 293 cells named for Fig. 3C, G, H; cells not named for Fig. 3E, F); lysis buffer 50 mM Tris-HCl pH 7.4, 100 mM NaCl, 0.5% Igepal CA630, 5 mM MgCl2; primary antibody overnight at 4°C, protein A/G beads
[7] = molecular target: T4, Flag-tagged apoA-I (made in HEK 293 cells) (UniProt Q00623); experiment: as above
T4 sequence: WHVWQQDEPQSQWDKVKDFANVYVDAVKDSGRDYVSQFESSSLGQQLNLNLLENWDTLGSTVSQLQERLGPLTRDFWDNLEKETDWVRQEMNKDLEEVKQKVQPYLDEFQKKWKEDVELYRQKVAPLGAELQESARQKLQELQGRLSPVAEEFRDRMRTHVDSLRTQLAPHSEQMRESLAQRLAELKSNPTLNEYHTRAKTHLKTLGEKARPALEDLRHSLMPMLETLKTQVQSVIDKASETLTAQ

[8] = molecular target: T4, Flag-tagged apoA-I (made in HEK 293 cells); experiment: pull-down; in vitro binding assay: flag-apoA-I held on protein A/G agarose by anti-flag-tag antibody; purified UBE4A added in the presence of InsP6, 5PP-InsP5, 5PCP, CF2, 1PP-InsP5, 3PP-InsP5, InsP3, InsP4 or InsP5, overnight at 4°C; beads washed three times; both purified

Molecule: ATP binding cassette subfamily A member 1 (ABCA1), endogenous (from UniProt P41233 1-2261)
binding [1]: binds

B1: Flag-tagged apoA-I (overexpressed in primary murine hepatocytes) (protein, UniProt Q00623 19-264)
chain: WHVWQQDEPQSQWDKVKDFANVYVDAVKDSGRDYVSQFESSSLGQQLNLNLLENWDTLGSTVSQLQERLGPLTRDFWDNLEKETDWVRQEMNKDLEEVKQKVQPYLDEFQKKWKEDVELYRQKVAPLGAELQESARQKLQELQGRLSPVAEEFRDRMRTHVDSLRTQLAPHSEQMRESLAQRLAELKSNPTLNEYHTRAKTHLKTLGEKARPALEDLRHSLMPMLETLKTQVQSVIDKASETLTAQ
binding [3]: binds

B3: HA-tagged UBE4A (enzyme, UniProt E9Q735 1-1028)
chain: MTDQENNNNISSNPFAALFGSLADAKQFAAIQKEQLKQQSDELPASPDDSDNSVSESLDEFDYSVSEISRSFRTHQEMCEQLNINHMIQRIFLITLDNSDPSLKSGNGIPSRCVYLEEMAVELEDQDWLDMSNVEQAIFARLLLQDPGNHLISMTSSTTLNLSADRDAGERHIFCYLYSCFQRAKEEITKVPENLLPFAVQCRNLTVSNTRTVLLTPEIYVDQNIHEQLVDLMLEAIQGAHFEDVTEFLEEVIEALLLDEEVRTFPEVMIPVFDILLSRIKDLELCQILLYAYLDILLYFTRQKDMAKVFLEYIQPKDPSNGQMYQKTLLGVILNISCLLKTPGVVENHGFFLNPSRSSPQEIKVQEANIHQFMAQFHEKIYQMLKNLLQLSPETKHCILFWLGNCLHANAGRTKIWANQMPEIFFQMYASDAFFLNLGAALLKLCQPFCKPRSSRLLTFNPTYCVLKDLNDEERKIKSVHMRGLDKETCLIPAVQEPTFPQSYNLVTENLALTEYTLYLGFHRLHDQMVKINQNLHRLQVAWRDAQQSSSPAADNLREQFERLMTIYLSTKTAMTEPQMLQNCLNLQVSMAVLLVQLAIGNEGSQPIELSFPLPDGYSSLAYVPEFFADNLGDFLIFLRRFAEDILETSADSLEHVLHFITIFTGSIERMKNPHLRAKLAEVLEAVMPHLDQTPSPLVSSVFHRKRVFCNFPYAPQLAEALIKVFVDIEFTGDPHQFEQKFNYRRPMYPILRYMWGTDCYRESIKYLSKIKIQQIEKDRGEWESLTPEARREKEAGLQMFGQLARFHNIMSNETIGTLSFLTSEIKSLFVHPFLAERIISMLNYFLQHLVGPKMGALKVKDFSEFDFKPQQLVSDICTIYLNLGDEENFCATVPKDGRSYSPTLFAQTVRVLKKINKPGNMIVAFSNLAERIKSLADLQQQEEETYADACDEFLDPIMSTLMSDPVVLPSSRVTVDRSTIARHLLSDQTDPFNRSPLTMDQIRPNTELKEKIQRWLAERKQQKEQPE
binding (Myc-tagged WT IP6K1): binds | binding [7]: binds

B4: GST-fused UBE4A (enzyme, UniProt E9Q735 1-1028)
chain: MTDQENNNNISSNPFAALFGSLADAKQFAAIQKEQLKQQSDELPASPDDSDNSVSESLDEFDYSVSEISRSFRTHQEMCEQLNINHMIQRIFLITLDNSDPSLKSGNGIPSRCVYLEEMAVELEDQDWLDMSNVEQAIFARLLLQDPGNHLISMTSSTTLNLSADRDAGERHIFCYLYSCFQRAKEEITKVPENLLPFAVQCRNLTVSNTRTVLLTPEIYVDQNIHEQLVDLMLEAIQGAHFEDVTEFLEEVIEALLLDEEVRTFPEVMIPVFDILLSRIKDLELCQILLYAYLDILLYFTRQKDMAKVFLEYIQPKDPSNGQMYQKTLLGVILNISCLLKTPGVVENHGFFLNPSRSSPQEIKVQEANIHQFMAQFHEKIYQMLKNLLQLSPETKHCILFWLGNCLHANAGRTKIWANQMPEIFFQMYASDAFFLNLGAALLKLCQPFCKPRSSRLLTFNPTYCVLKDLNDEERKIKSVHMRGLDKETCLIPAVQEPTFPQSYNLVTENLALTEYTLYLGFHRLHDQMVKINQNLHRLQVAWRDAQQSSSPAADNLREQFERLMTIYLSTKTAMTEPQMLQNCLNLQVSMAVLLVQLAIGNEGSQPIELSFPLPDGYSSLAYVPEFFADNLGDFLIFLRRFAEDILETSADSLEHVLHFITIFTGSIERMKNPHLRAKLAEVLEAVMPHLDQTPSPLVSSVFHRKRVFCNFPYAPQLAEALIKVFVDIEFTGDPHQFEQKFNYRRPMYPILRYMWGTDCYRESIKYLSKIKIQQIEKDRGEWESLTPEARREKEAGLQMFGQLARFHNIMSNETIGTLSFLTSEIKSLFVHPFLAERIISMLNYFLQHLVGPKMGALKVKDFSEFDFKPQQLVSDICTIYLNLGDEENFCATVPKDGRSYSPTLFAQTVRVLKKINKPGNMIVAFSNLAERIKSLADLQQQEEETYADACDEFLDPIMSTLMSDPVVLPSSRVTVDRSTIARHLLSDQTDPFNRSPLTMDQIRPNTELKEKIQRWLAERKQQKEQPE
binding [8]: binds

Other lines, results leading:

binding [1]: binds | binding [2]: binds
Molecule: Inositol hexakisphosphate kinase 1 (IP6K1), endogenous (from UniProt Q6PD10 1-433) (enzyme)

binding [4]: binds | binding [5]: binds | binding [6]: binds
B2: Ubiquitination factor E4A (UBE4A), endogenous (enzyme, UniProt E9Q735 1-1028)
chain: MTDQENNNNISSNPFAALFGSLADAKQFAAIQKEQLKQQSDELPASPDDSDNSVSESLDEFDYSVSEISRSFRTHQEMCEQLNINHMIQRIFLITLDNSDPSLKSGNGIPSRCVYLEEMAVELEDQDWLDMSNVEQAIFARLLLQDPGNHLISMTSSTTLNLSADRDAGERHIFCYLYSCFQRAKEEITKVPENLLPFAVQCRNLTVSNTRTVLLTPEIYVDQNIHEQLVDLMLEAIQGAHFEDVTEFLEEVIEALLLDEEVRTFPEVMIPVFDILLSRIKDLELCQILLYAYLDILLYFTRQKDMAKVFLEYIQPKDPSNGQMYQKTLLGVILNISCLLKTPGVVENHGFFLNPSRSSPQEIKVQEANIHQFMAQFHEKIYQMLKNLLQLSPETKHCILFWLGNCLHANAGRTKIWANQMPEIFFQMYASDAFFLNLGAALLKLCQPFCKPRSSRLLTFNPTYCVLKDLNDEERKIKSVHMRGLDKETCLIPAVQEPTFPQSYNLVTENLALTEYTLYLGFHRLHDQMVKINQNLHRLQVAWRDAQQSSSPAADNLREQFERLMTIYLSTKTAMTEPQMLQNCLNLQVSMAVLLVQLAIGNEGSQPIELSFPLPDGYSSLAYVPEFFADNLGDFLIFLRRFAEDILETSADSLEHVLHFITIFTGSIERMKNPHLRAKLAEVLEAVMPHLDQTPSPLVSSVFHRKRVFCNFPYAPQLAEALIKVFVDIEFTGDPHQFEQKFNYRRPMYPILRYMWGTDCYRESIKYLSKIKIQQIEKDRGEWESLTPEARREKEAGLQMFGQLARFHNIMSNETIGTLSFLTSEIKSLFVHPFLAERIISMLNYFLQHLVGPKMGALKVKDFSEFDFKPQQLVSDICTIYLNLGDEENFCATVPKDGRSYSPTLFAQTVRVLKKINKPGNMIVAFSNLAERIKSLADLQQQEEETYADACDEFLDPIMSTLMSDPVVLPSSRVTVDRSTIARHLLSDQTDPFNRSPLTMDQIRPNTELKEKIQRWLAERKQQKEQPE

— PMC7617243
